Measurements taken from PMC11024185.

What was measured:
[1] = target: T1, Ssf1-3xFLAG-3C-2xProteinA (S. cerevisiae) (UniProt P38789); test: affinity purification with mass spectrometry; purification of pre-60S intermediates from a drs1 R569Q strain by tags on Drs1 R569Q (3x-Strep) and Ssf1 (2x-ProtA); Coomassie-stained 4-20% SDS-PAGE
T1 sequence: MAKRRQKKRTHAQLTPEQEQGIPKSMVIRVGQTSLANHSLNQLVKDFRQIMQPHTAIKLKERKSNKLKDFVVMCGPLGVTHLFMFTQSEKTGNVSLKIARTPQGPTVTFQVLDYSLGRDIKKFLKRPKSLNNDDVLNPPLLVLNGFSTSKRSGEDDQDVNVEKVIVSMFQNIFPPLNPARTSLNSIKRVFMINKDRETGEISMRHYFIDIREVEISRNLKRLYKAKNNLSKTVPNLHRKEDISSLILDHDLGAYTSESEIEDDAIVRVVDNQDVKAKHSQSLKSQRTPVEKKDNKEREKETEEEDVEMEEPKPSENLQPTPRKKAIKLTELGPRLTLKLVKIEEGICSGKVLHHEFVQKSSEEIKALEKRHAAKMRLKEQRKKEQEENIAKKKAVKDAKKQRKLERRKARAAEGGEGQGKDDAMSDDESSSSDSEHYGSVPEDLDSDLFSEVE

[2] = target: T2, Dbp10 (2xStrep-bdNEDD8-DBP10) (S. cerevisiae) (UniProt Q12389); test: affinity purification with mass spectrometry; split-tag purification of pre-60S particles from steady state DBP10 yeast: IgG Sepharose on Ssf1-2xProteinA, 3C cleavage, then Strep-Tactin on 2xStrep-Dbp10, desthiobiotin elution; buffers with 50 µM ADP-BeF3; Coomassie-stained 4-20% SDS-PAGE, bands named by molecular weight, ambiguous bands by mass spectrometry
T2 sequence: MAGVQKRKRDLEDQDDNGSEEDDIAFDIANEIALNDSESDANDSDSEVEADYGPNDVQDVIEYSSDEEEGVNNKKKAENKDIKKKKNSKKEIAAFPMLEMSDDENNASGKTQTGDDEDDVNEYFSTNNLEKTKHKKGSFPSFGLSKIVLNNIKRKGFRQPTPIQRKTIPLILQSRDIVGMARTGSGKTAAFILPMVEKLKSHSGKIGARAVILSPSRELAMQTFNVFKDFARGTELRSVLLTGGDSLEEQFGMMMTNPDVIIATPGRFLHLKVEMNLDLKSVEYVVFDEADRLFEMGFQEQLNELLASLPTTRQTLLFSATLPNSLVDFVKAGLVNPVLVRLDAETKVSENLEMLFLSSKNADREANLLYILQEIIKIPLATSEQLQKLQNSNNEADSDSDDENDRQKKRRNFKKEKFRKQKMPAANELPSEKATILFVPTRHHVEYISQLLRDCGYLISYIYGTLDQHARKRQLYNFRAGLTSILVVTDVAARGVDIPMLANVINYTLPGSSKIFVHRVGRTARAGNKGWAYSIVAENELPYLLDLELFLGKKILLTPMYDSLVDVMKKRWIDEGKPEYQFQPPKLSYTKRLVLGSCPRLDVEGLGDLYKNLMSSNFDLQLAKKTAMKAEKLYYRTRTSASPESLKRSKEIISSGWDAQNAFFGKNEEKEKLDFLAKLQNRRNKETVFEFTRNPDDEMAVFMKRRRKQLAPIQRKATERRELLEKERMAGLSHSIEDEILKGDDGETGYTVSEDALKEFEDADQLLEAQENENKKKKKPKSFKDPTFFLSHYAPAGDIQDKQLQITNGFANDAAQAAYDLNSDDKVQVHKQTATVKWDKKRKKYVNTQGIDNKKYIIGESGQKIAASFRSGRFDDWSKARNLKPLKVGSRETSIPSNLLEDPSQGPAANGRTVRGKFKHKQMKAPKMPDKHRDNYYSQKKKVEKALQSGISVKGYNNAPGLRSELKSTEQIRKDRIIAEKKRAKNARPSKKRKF

[3] = target: T1, Ssf1-3xFLAG-3C-2xProteinA (S. cerevisiae); test: as above
[4] = target: T2, Dbp10 (2xStrep-bdNEDD8-DBP10) (S. cerevisiae); test: affinity purification with mass spectrometry; split-tag purification of pre-60S particles from SPB4-AID yeast without and with auxin (0.5 mM IAA, 45 min): IgG Sepharose on Noc2-2xProteinA, 3C cleavage, then Strep-Tactin on 2xStrep-Dbp10; buffers with 50 µM ADP-BeF3; Coomassie-stained 4-20% SDS-PAGE, bands named by molecular weight, ambiguous bands by mass spectrometry; auxin gave ~10-fold enrichment of the particle
[5] = target: T3, Noc2-3xFLAG-3C-2xProteinA (S. cerevisiae) (UniProt P39744); test: as above
T3 sequence: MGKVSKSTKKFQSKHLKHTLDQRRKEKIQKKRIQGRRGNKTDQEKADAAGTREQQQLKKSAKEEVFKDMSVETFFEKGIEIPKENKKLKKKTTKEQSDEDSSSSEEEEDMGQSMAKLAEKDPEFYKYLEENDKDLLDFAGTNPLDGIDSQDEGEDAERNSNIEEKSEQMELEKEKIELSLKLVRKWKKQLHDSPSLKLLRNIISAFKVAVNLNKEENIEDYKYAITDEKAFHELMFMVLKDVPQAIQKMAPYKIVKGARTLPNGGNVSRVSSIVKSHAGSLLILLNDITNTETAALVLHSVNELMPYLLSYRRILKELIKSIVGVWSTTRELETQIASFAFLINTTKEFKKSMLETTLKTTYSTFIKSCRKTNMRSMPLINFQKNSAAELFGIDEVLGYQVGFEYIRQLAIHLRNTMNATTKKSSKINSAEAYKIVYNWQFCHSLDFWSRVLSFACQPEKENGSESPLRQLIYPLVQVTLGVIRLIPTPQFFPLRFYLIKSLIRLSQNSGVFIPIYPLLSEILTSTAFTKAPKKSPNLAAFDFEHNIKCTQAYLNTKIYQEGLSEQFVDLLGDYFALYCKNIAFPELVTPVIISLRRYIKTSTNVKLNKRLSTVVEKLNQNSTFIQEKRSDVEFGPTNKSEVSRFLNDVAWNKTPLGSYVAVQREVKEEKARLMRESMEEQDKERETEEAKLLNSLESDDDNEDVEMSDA

Measured: binding

B1: uL18 (protein, UniProt P26321 1-297)
chain: MAFQKDAKSSAYSSRFQTPFRRRREGKTDYYQRKRLVTQHKAKYNTPKYRLVVRFTNKDIICQIISSTITGDVVLAAAYSHELPRYGITHGLTNWAAAYATGLLIARRTLQKLGLDETYKGVEEVEGEYELTEAVEDGPRPFKVFLDIGLQRTTTGARVFGALKGASDGGLYVPHSENRFPGWDFETEEIDPELLRSYIFGGHVSQYMEELADDDEERFSELFKGYLADDIDADSLEDIYTSAHEAIRADPAFKPTEKKFTKEQYAAESKKYRQTKLSKEERAARVAAKIAALAGQQ
binds: all assays above

B2: Nop15 (protein, UniProt P53927 1-220)
chain: MVKSTSKTSTKETVTKQPTEEKPIQEKEELALETSSSSSDEEDEKDEDEIEGLAASDDEQSGTHKIKRLNPKKQANEKKSKDKKTLEEYSGIIYVSRLPHGFHEKELSKYFAQFGDLKEVRLARNKKTGNSRHYGFLEFVNKEDAMIAQESMNNYLLMGHLLQVRVLPKGAKIEKLYKYKKRVLVEKGITKPVKQLKDNMKQKHEERIKKLAKSGIEFKW
binds: all assays above

B3: Brx1 (protein, UniProt Q08235 1-291)
chain: MSSIYKALAGKSKDNKSEKKQGNVKQFMNKQRTLLISSRGVNYRHRHLIQDLSGLLPHSRKEPKLDTKKDLQQLNEIAELYNCNNVLFFEARKHQDLYLWLSKPPNGPTIKFYIQNLHTMDELNFTGNCLKGSRPVLSFDQRFESSPHYQLIKELLVHNFGVPPNARKSKPFIDHVMSFSIVDDKIWVRTYEISHSTKNKEEYEDGEEDISLVEIGPRFVMTVILILEGSFGGPKIYENKQYVSPNVVRAQIKQQAAEEAKSRAEAAVERKIKRRENVLAADPLSNDALFK
binds: all assays above

B4: Rcm1 (enzyme, UniProt P53972 1-490)
chain: MNFYRDATWVLEDIEKEAAKERISGSMQTLVLKSCKRYKLKSNPKHIYAVLDSCWKYKPYLEKVMKKAHILEDIPKKKGKPLFSRLTLLLLCHDLLLSKQKRIQMGKHPIKDYVLKFKSPLHSEMVKLKLKLKVRELSELVLSEDISNDLPPVRWIRINPLKCHPNGETEPVLAELRKKFTLKVDKWSELVPGSIYYDEFIPNLFGIHPSDKITAHELYKHGKIIIQDRASCFPAHILNPGPSDIVIDSCSAPGNKTTHTASYIYPEPPKDNNTRIYAFEKDPERAKVLQKMIKIAGCSPNISVNVGDFTKLATPEKYKDVTCFIVDPSCSGSGIFGRKFFDSFNRRKIDDKDDDGGIVPDEQEEFIAKEELQTRLAKLSSFQFQMVKHAMSFPAAKKIVYSTCSIHAEENERVVIDLLLDKSVREWGWKVAPKREVIPSWPRRGKVEEFEEVFRDGVTYDPQQLAEGCIRALPKSDGGIGFFAVCFERD
binds: all assays above

B5: Rlp7 (protein, UniProt P40693 1-322)
chain: MSSTQDSKAQTLNSNPEILLRKRRNADRTRIERQELAKKKREEQIKKKRSNKNKFVRAESIVAKTLATSREKERIKRVSILEDKKAKNETQHIASGKDFILKITEKANGAEENSVDLEETEEEEDDGLIREKTTYDGKPALLFIVRVRGPLAVNIPNKAFKILSLLRLVETNTGVFVKLTKNVYPLLKVIAPYVVIGKPSLSSIRSLIQKRGRIIYKGENEAEPHEIVLNDNNIVEEQLGDHGIICVEDIIHEIATMGESFSVCNFFLQPFKLNREVSGFGSLNRLRKIKQREAESRTRQFSNAATAPVIEVDIDSLLAKLN
binds: all assays above

B6: Erb1 (protein, UniProt Q04660 1-807)
chain: MMAKNNKTTEAKMSKKRAASEESDVEEDEDKLLSVDGLIDAEASESDEDDDEYESAVEEKESSSDKEAQDDSDDDSDAELNKLLAEEEGDGEEDYDSSEFSDDTTSLTDRLSGVKLQTIVDPNIYSKYADGSDRIIKPEINPVYDSDDSDAETQNTIGNIPLSAYDEMPHIGYDINGKRIMRPAKGSALDQLLDSIELPEGWTGLLDKNSGSSLNLTKEELELISKIQRNEQTDDSINPYEPLIDWFTRHEEVMPLTAVPEPKRRFVPSKNEAKRVMKIVRAIREGRIIPPKKLKEMKEKEKIENYQYDLWGDSTETNDHVMHLRAPKLPPPTNEESYNPPEEYLLSPEEKEAWENTEYSERERNFIPQKYSALRKVPGYGESIRERFERSLDLYLAPRVRKNKLNIDPNSLIPELPSPKDLRPFPIRCSTIYAGHKGKVRTLSIDPSGLWLATGSDDGTVRVWEILTGREVYRTTLIDDEENPDYHIECIEWNPDANNGILAVAVGENIHLIVPPIFGYDIENNGKTKIEDGFGYDTFGTVKKSNLEVNENGDGDEDGENESAKNAVKKQVAQWNKPSQKQLEKDICITISCKKTVKKLSWHRKGDYFVTVQPDSGNTSVLIHQVSKHLTQSPFKKSKGIIMDAKFHPFKPQLFVCSQRYVRIYDLSQQILVKKLLPGARWLSKIDIHPRGDNLIASSFDKRVLWHDLDLASTPYKTLRYHEKAVRSVNFHKKLPLFSSAADDGTIHVFHATVYDDMMKNPMIVPLKKLTGHKVINSLGVLDAIWHPREAWLFSAGADNTARLWTT
binds: all assays above

These are yes or no findings as the source states them, for the method shown. Binding seen in cells or lysates may run through a third protein. These calls come from enrichment with a bait or labelling near it, and not all partners need be listed. For part of these data: Where a sequence is shown, tags or fusion partners need not be part of it.
